Measurements published in article PMC10766641.

Molecular target: T1, Flag-OGT (O-GlcNAc transferase) (human (cDNA from THP-1 cells)) (UniProt O15294)
T1 sequence: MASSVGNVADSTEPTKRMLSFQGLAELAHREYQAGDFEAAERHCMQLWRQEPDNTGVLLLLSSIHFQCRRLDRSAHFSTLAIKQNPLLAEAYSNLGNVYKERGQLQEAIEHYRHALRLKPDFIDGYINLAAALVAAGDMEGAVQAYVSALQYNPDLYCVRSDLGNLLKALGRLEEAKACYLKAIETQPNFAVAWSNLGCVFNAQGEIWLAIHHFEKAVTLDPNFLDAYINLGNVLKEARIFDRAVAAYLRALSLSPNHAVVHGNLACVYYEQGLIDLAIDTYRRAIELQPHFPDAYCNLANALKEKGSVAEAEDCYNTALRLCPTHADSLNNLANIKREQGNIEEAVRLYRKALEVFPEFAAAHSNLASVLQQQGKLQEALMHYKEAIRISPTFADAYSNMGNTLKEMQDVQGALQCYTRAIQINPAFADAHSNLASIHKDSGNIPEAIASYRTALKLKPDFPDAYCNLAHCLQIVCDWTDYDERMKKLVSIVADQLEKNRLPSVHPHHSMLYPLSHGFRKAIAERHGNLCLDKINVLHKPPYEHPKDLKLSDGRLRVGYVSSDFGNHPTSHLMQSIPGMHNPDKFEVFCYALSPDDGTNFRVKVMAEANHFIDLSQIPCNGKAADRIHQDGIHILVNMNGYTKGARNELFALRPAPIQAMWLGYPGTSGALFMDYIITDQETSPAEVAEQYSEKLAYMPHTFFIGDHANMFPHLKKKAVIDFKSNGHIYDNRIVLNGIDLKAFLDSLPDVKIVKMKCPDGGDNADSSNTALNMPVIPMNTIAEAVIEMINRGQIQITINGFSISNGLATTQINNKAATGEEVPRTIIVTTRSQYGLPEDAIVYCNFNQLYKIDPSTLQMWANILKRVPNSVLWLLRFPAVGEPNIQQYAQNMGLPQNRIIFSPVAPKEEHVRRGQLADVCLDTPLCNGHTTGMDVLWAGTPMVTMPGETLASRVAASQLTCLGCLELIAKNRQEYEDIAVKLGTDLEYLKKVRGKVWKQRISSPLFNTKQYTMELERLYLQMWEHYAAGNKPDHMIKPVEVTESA
Assay: co-IP; HEK293T cells co-transfected with tagged plasmids (in some panels also Myc-SOCS3 or Myc-CUL5); lysed in cold RIPA buffer with protease inhibitors; antibodies and Protein G Agarose beads overnight at 4 °C; immunoblot

- binding: no binding
Substance: Myc-CUL5 ΔCH + ΔNEDD (domain or fragment)

Results are given in words; binding and its absence hold for the method and conditions named. Binding seen in cells or lysates may run through a third protein. Sequences can lack the tags named with a protein.
